Results as given in PubChem BioAssay AID624291 (National Center for Advancing Translational Sciences (NCATS), 2012).
Out of some 350,000 compounds screened, about 220 (0.063%) were called active. Inconclusive means that the source gave no clear call. Such entries were picked first, then a sample of the others. Calls come from the whole dose curve; as a rule, active = well fitted activation curve with a large enough effect; inconclusive = small, poorly fitted or top-dose-only effect; inactive = no such curve, though single readings can be large or run the other way. Where the call is inconclusive, the potency comes from a doubtful curve fit.

assay: qHTS for Activators of Integrin-Mediated Alleviation for Muscular Dystrophy; settings: alpha7betagal myoblasts, beta-gal FDG fluorescence, 48 h; activation: at 38.3 µM (top of the series); note: nearly all actives have a fitted effect of over 60% in size;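 for activation: 100% = response of the positive control SU9516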
In short: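 Alpha7betagal+/- myoblasts (passage 13) were plated 16-24 hr, then exposed to compounds (1:260 dilution of DMSO stock) for 48 hours at 37C. After MPER lysis, β-galactosidase reporter activity was read as FDG fluorescence (ex 480/em 540) after 30 minutes.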
Potency is the fitted concentration of half-maximal effect.

Potency, inconclusive:
Clc1nc(Nc2ccccc2)nc(Nc2ccccc2)n1 5.01 µM [activator, single point]
O=C(N/N=C/c1c[nH]c2ccccc12)c1cc(Cl)ccc1O 5.62 µM [activator, full curve, poor fit]
CCOc1cc(C(=S)N2CCOCC2)ccc1OS(=O)(=O)c1ccc(C)cc1 14.1 µM [activator, single point]
Cc1ccc2nc(NCCc3ccc(Cl)cc3)c3nncn3c2c1 1.78 µM [activator, partial curve, poor fit]
CCOC(=O)CN1C(=O)CCSc2ccc(Cl)cc21 3.55 µM [activator, single point]
Cc1ccc(CC(=O)O/N=C(\N)c2ccccn2)cc1 2.82 µM [activator, full curve, poor fit]
Fc1ccc(Oc2nnnn2-c2ccccc2)cc1 5.01 µM [activator, single point]
Cc1ccc(NC(=O)c2cc(N3C(=O)C4CCCCC4C3=O)ccc2N2CCOCC2)cc1 (centres undefined) 0.562 µM [activator, full curve, poor fit]
O=C1Nc2ccccc2N(O)N1c1ccc(S(=O)(=O)Nc2ccccn2)cc1 22.4 µM [activator, single point]
O=C(CCc1nnc2ccc(N3CCCCC3)nn12)NCc1ccco1 28.2 µM [activator, single point]
CSCC[C@H](NC(=O)Cc1ccc(Cl)cc1)C(=O)N1CCC2(CC1)NCCc1[nH]cnc12 5.01 µM [activator, single point]
COc1ccc(-c2cn[nH]c2-c2ccc(OCC(=O)NN)cc2O)cc1 10 µM [activator, partial curve, poor fit]
O=C(COc1cccc2cccnc12)Nc1cccc(S(=O)(=O)N2CCCC2)c1 28.2 µM [activator, single point]
Cc1ccc(C2Nc3cccc4cccc(c34)N2)cc1 5.01 µM [activator, single point]
COc1ccc(CC(=O)OCC(=O)Nc2ccc(Cl)cn2)cc1 5.01 µM [activator, single point]
CSCCC(NC(=O)COc1ccccc1)C(=O)N(C)Cc1ccc(SC)cc1 (centres undefined) 3.98 µM [activator, single point]
CC(=O)NC12CC3CC(C1)CC(C(=O)N1CCN(S(=O)(=O)c4cccc([N+](=O)[O-])c4)CC1)(C3)C2 10 µM [activator, single point]
Cc1ccc(/C=C2\SC(=S)N(CCC(=O)NNC(=O)c3cccc(O)c3)C2=O)cc1 3.16 µM [activator, single point]
CCOC(=O)C1=C(C)NC(C)=C(C(=O)OCC)C1c1sccc1C 3.55 µM [activator, partial curve, poor fit]
S=C(NCc1cccnc1)Nc1cc(Cl)cc(Cl)c1 5.01 µM [activator, single point]
Cc1nc(-c2ccccc2)sc1C(=O)Nc1ccccc1F 1 µM [activator, single point]
O=C1COc2ccc(S(=O)(=O)NCCc3ccc(Cl)cc3)cc2N1 2.82 µM [activator, single point]
O=C1N(c2ccccc2)CCN1c1ccccc1 2.51 µM [activator, single point]
COc1cc(/C=C2/C(=O)N(c3ccc([N+](=O)[O-])cc3)N=C2N2CCOCC2)ccc1O 5.01 µM [activator, single point]
Cc1ccc(Nc2nc(-c3ccc(F)cc3)cs2)nc1 5.01 µM [activator, single point]
O=c1oc2ccc(NS(=O)(=O)c3cccc4cccnc34)cc2s1 3.16 µM [activator, partial curve, poor fit]
CC(=O)Nc1cccc(C(=O)N2CCN(S(=O)(=O)c3ccc(C4CCCCC4)cc3)CC2)c1 3.55 µM [activator, single point]
CCOc1ncccc1C(=O)Nc1cccc(S(=O)(=O)N2CCCCC2)c1 4.47 µM [activator, single point]
Cc1nc(NC(=S)Nc2ccccc2)sc1C 2.51 µM [activator, single point]
Cc1cc(C)c(NC(=S)N(C)C)cc1C 15.8 µM [activator, single point]
O=C1CC(c2ccccc2)=NN1c1ccccc1 31.6 µM [activator, partial curve, poor fit]
Cc1nnc(NC(=O)CSc2nnc(CNC(=O)c3ccc(F)cc3)o2)s1 5.01 µM [activator, single point]
O=C(Cn1cccc1C(=O)c1ccccc1)NCc1cccc(Cl)c1 15.8 µM [activator, single point]
O=C(CN1CCCc2ccccc21)N/N=C/c1ccccc1 28.2 µM [activator, single point]
Cc1c(NC(=O)c2cnn3cccnc23)c(=O)n(-c2ccccc2)n1C 17.8 µM [activator, single point]
O=C(CCC(=O)Nc1ccc(Oc2ccccc2)cc1)NCCO 3.16 µM [activator, full curve, poor fit]
Nc1ncnc(NC2CCS(=O)(=O)C2)c1[N+](=O)[O-] (centres undefined) 2.51 µM [activator, full curve]
Cc1ccc(CNC(=O)CCCc2ccccc2)cc1 1.78 µM [activator, partial curve, poor fit]
Cc1c(C(=O)NN2CCOCC2)oc2ccccc12 2.24 µM [activator, full curve, poor fit]
Cc1cccn2c(=O)c(C=O)c(N3CCN(c4ccc(F)cc4)CC3)nc12 2.51 µM [activator, single point]
Cc1ccc(C(=O)Nc2cccc(-c3ccc(N4CCOCC4)nn3)c2)cc1C 5.01 µM [activator, single point]
COc1ccccc1NC(=O)CSc1nncn1-c1ccccc1 2.82 µM [activator, single point]
O=C(COc1ccc(-c2nnco2)cc1)NC1CCS(=O)(=O)C1 (centres undefined) 12.6 µM [activator, single point]
O=C(NCC1CCN(Cc2ccccc2F)CC1)Nc1cccc(Br)c1 28.2 µM [activator, partial curve, poor fit]

Five entries out of the list, sorted by length of the SMILES, ascending:
Potency, inconclusive:
Cc1ccc2nc(NCCc3ccc(Cl)cc3)c3nncn3c2c1 1.78 µM [activator, partial curve, poor fit]
COc1ccc(CC(=O)OCC(=O)Nc2ccc(Cl)cn2)cc1 5.01 µM [activator, single point]
O=C(COc1ccc(-c2nnco2)cc1)NC1CCS(=O)(=O)C1 (centres undefined) 12.6 µM [activator, single point]
Cc1nnc(NC(=O)CSc2nnc(CNC(=O)c3ccc(F)cc3)o2)s1 5.01 µM [activator, single point]
CC(=O)NC12CC3CC(C1)CC(C(=O)N1CCN(S(=O)(=O)c4cccc([N+](=O)[O-])c4)CC1)(C3)C2 10 µM [activator, single point]

Following part:

Potency, inactive:
CSCCCN1CCCC(CO)(Cc2ccc(F)cc2)C1 (centres undefined)
COc1ccc2[nH]c(=O)c(CN(CC3CCCO3)C(=S)Nc3ccccc3)cc2c1 (centres undefined)
COc1ccc(C[C@H]2CN3C(=NC[C@@H]3Cc3ccc(O)cc3)N2C[C@H](C)NC(=O)c2ccc(C)c(Br)c2)cc1
CCCn1c(C(C)NS(=O)(=O)c2ccccc2)n[nH]c1=S (centres undefined)
Cc1cc(CC(C)C)n(-c2nc3ccccc3c(=O)n2OCC(=O)N(C)C)n1
CC(=O)Nc1ccc(NC(=O)CN2CCN(c3cccc(C(F)(F)F)c3)CC2)cc1
CN(/N=C/c1ccc(O)cc1O)c1ncc(C(F)(F)F)cc1Cl
COC(=O)c1ccc(COC(=O)c2ccc(N(C)C)cc2)cc1
CN1CCN(C(=O)CCCOc2cc(=O)n(C)c3ccccc23)CC1
C=CCn1c(-c2cccnc2)n[nH]c1=S
COc1ccc(/C=N/Nc2nc(C(=O)O)cs2)cc1
CCC(CC)C(=O)Nc1cccc(/C(C)=N/NC(=O)c2c(Br)cnn2C)c1
CCCC(=O)N1CC(=O)Nc2ccc(C)cc2C1c1ccccc1 (centres undefined)
CCC(=O)N(Cc1cccs1)C1CCOC(C)(C)C1 (centres undefined)
CCn1c(=O)c2ccccc2n(Cc2cccc(C)c2)c1=O
CCc1ccc(C(=O)OCC(=O)N2CCCCCC2)cc1
C/C(=N\Nc1nc(C)cc(-c2ccccc2)n1)c1ccc(F)cc1
Cc1ccc(-n2nnnc2CNC(=O)c2ccc([N+](=O)[O-])o2)cc1C
COc1ccc(OC)c(NC(=O)C2CCN(Cc3cnn(-c4ccccc4)c3-n3cccc3)CC2)c1
CC(NC(=O)C(C(=O)c1cccc([N+](=O)[O-])c1)n1cc(Cl)ccc1=O)c1ccccc1 (centres undefined)
O=S1(=O)N=C(Nc2nc3c(s2)CCCC3)c2ccccc21
c1ccc2c(c1)nnn2-c1ccncc1
O=C(NCCSc1ccccc1)c1cncc(Br)c1
O=C1CSC(=S)N1Cc1ccccc1
COc1cc(/C=C2\CC/C(=C\c3cc(OC)c(OC)c(OC)c3)C2=O)cc(OC)c1OC
COCCCn1c(=O)/c(=C\c2ccccc2OC(F)F)s/c1=C(/C#N)C(N)=O
COc1ccc(NC(=S)Nc2ccc(F)cc2)cc1
COCCNC(=O)c1cccc(S(=O)(=O)N2CC3(C)CC2CC(C)(C)C3)c1 (centres undefined)

activation, inconclusive:
O=C(Nc1ccc(N2CCN(C(=O)c3ccco3)CC2)cc1)c1cccnc1Cl -20.6% [activator]
CC(=CC(=O)c1ccccc1)c1ccccc1 47.1% [activator]
